Assay results taken from article PMC9604462.

By UniProt entry, the sequences of proteins in these tests, tags left out. Residues count along the entry.
UniProt P00442, 2-152: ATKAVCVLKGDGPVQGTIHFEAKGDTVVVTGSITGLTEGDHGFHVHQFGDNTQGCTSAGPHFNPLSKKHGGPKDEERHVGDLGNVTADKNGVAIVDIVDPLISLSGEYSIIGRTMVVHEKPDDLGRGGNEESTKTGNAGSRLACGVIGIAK

Molecular target: bovine Cu/Zn superoxide dismutase SOD1 (bovine) (UniProt P00442)
Assay: SAXS
Conditions: H2O2 0.05-1 mM, 24 h, binding said to be disrupted; SAXS: 100 uM bovine SOD1 and dsDNA; commercial protein

Does ATGGAATGGAAT (double strand) [dsDNA] bind?
Result: binds more weakly

The exact form of at least one protein or probe is not confirmed. The comparison behind a weaker result is the experiment's own reference, which may not be listed here.
